Substitutions are numbered along the chain they refer to. These are yes or no findings as the source states them, for the method shown. Some results given as binding are weak or reduced against the parent protein; the word gives no strength.
Key:
Experiment in all cases: native gel or EMSA; native PAGE, Tris-glycine pH 8.3 without SDS, 4% stacking/12% resolving gels; ALK2 kinase forms with or without SUMO-BMPRII fusion protein or BMPRII kinase; both purified
[1] = molecular target: T1, ACVR1/ALK2 receptor kinase cytoplasmic domain, Q207D variant (Thr172-Cys509) (UniProt Q04771)
T1 sequence: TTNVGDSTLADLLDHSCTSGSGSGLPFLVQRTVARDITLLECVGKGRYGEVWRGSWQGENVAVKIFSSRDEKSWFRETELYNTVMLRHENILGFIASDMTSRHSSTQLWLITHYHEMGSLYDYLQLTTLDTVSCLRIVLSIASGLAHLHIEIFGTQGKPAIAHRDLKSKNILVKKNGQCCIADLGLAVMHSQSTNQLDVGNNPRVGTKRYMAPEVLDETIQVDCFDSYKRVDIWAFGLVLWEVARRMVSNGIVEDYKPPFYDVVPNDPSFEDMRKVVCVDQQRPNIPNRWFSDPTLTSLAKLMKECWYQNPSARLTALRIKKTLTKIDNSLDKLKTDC

The chains behind the UniProt entries cited, without tags or fusion partners. Residues count along the entry.
UniProt Q13873, residues 203-504: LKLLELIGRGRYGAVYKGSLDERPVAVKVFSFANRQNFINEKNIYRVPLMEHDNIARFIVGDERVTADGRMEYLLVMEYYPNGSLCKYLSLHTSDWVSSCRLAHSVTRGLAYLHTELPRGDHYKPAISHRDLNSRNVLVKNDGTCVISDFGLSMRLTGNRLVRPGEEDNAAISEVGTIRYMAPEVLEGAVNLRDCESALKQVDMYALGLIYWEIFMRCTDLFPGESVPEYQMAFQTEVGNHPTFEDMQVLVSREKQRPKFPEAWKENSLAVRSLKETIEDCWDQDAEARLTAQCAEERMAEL

[2] = molecular target: T2, ACVR1/ALK2 receptor kinase cytoplasmic domain, wild type (Thr172-Cys509) (UniProt Q04771)
T2 sequence: T1 sequence with D36Q

[3] = molecular target: T3, ACVR1/ALK2 receptor kinase, 208 Ntrunc (Ile208-Cys509) (UniProt Q04771)
T3 sequence: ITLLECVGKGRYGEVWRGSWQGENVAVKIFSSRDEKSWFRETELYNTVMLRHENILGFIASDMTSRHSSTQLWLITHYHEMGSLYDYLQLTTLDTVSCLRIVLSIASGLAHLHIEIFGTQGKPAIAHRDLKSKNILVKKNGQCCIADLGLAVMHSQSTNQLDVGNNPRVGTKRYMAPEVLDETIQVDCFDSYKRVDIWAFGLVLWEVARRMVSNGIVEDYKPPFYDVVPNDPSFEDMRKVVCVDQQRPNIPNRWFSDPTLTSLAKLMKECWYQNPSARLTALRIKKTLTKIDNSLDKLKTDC

[4] = molecular target: T4, ACVR1/ALK2 receptor kinase cytoplasmic domain, R206H mutant (Thr172-Cys509) (UniProt Q04771)
T4 sequence: T1 sequence with R35H, D36Q

Measured: binding

BMPRII kinase domain (SUMO fusion partner removed) (from UniProt Q13873 203-504) (domain or fragment)
binds weakly: [1] | [2] | [3] | [4]

SUMO-BMPRII kinase fusion protein (8xHis-SUMO-TEV-BMPRII kinase domain) (from UniProt Q13873 203-504) (domain or fragment)
binds weakly: [1] | [2] | [3] | [4]

— article PMC10376983
